According to PMC10589346:
Results are given in words; binding and its absence hold for the method and conditions named. In cells and extracts the contact can be indirect. Some results given as binding are weak or reduced against the parent protein; the word gives no strength.

Amino acid sequences for entries named in this document (tags omitted).
UniProt Q8N697: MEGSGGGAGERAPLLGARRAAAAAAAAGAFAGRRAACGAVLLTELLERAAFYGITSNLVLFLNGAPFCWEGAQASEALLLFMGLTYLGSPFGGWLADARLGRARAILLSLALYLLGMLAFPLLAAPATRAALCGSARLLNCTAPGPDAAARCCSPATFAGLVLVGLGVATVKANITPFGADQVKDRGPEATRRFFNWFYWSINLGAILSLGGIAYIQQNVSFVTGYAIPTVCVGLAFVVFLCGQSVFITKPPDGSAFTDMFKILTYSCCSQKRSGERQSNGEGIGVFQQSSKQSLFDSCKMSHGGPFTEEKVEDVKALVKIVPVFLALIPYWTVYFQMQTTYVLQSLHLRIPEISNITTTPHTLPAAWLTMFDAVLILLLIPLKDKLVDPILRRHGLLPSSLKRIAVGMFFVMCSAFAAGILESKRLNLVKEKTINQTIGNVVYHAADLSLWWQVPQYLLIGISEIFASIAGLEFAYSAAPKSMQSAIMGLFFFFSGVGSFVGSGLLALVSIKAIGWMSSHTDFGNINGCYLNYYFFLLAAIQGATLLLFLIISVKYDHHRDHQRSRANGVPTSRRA

Biological target: SLC15A4-GFP and SLC15A4-mCherry (two differently labelled copies for FRET) (human) (UniProt Q8N697)
Experiment: FRET or BRET; SLC15A4-GFP and SLC15A4-mCherry co-transfected in HEK293T; dequenching FRET (acceptor bleaching) on a Nikon A1 HD25 microscope 48 h after transfection

binding: binds
Substance: SLC15A4-GFP and SLC15A4-mCherry (two differently labelled copies for FRET) (from UniProt Q8N697 1-577)
